Measured values from PubChem BioAssay AID1439 (NMMLSC, 2008).
Out of some 220,000 compounds screened, about 770 (0.35%) were called active. Inconclusive results, whose numbers are uncertain, are shown with a selection of clear calls. No stated cut-off is given here; in the data, active means binding response below about 49% or above about 150%; inconclusive means no clear call, values can overlap the other calls; inactive means in between.

The chains behind the UniProt entries cited, without tags or fusion partners.
UniProt P09471, whole entry, looked up: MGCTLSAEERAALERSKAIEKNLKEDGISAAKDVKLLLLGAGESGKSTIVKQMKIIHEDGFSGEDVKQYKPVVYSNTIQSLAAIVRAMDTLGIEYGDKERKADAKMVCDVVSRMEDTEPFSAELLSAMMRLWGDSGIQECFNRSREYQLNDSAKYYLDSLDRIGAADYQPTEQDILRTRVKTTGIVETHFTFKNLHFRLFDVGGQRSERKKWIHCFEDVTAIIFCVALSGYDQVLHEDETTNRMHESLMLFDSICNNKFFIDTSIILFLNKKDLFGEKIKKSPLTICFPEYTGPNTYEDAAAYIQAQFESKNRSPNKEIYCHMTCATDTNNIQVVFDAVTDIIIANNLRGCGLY

What follows are compounds tested against Guanine nucleotide-binding protein G(o) subunit alpha (Homo sapiens) (UniProt P09471) (assay: RGS7-Galphao binding modulators, primary screen, biochemical, multiplexed bead flow cytometry (AID 1439;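 further: fluorescent Galphao held in activated GDP-AlF4 state binding bead-coupled RGS7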)). Conditions: at 10 µM, actives lie on both sides.
In the case of `Cc1ccccc1C(=O)Nc1nnc(CC(=O)N/N=C/c2ccncc2)s1`, the binding response (% of control) is reported as inconclusive: 101%.
`Cc1c(/C=N/Nc2ccc([N+](=O)[O-])cn2)c2ccccc2n1Cc1ccccc1` was tested, and the binding response (% of control) was inconclusive: 76.1%.
In the case of `O=C(Oc1c(CN2CCOCC2)cc(Cl)c2cccnc12)c1ccccc1Br`, the binding response (% of control) is reported as inconclusive: 48.8%.
`Fc1ccc(-n2c(-c3cc(C4CC4)[nH]n3)n[nH]c2=S)cc1Cl` was tested, and the binding response (% of control) was inconclusive: 63.3%.
With `CC(C)Cc1nc(SCC(=O)Nc2nnc(CC(C)C)s2)n[nH]1` the binding response (% of control) was inconclusive: 80.8%.
For `O=C(Nc1ccc(-c2cnco2)cc1)c1ccccc1`, the binding response (% of control) was inconclusive: 92.9%.
In the case of `CC(NC(=O)CCl)c1ccccc1Br` (centres undefined), the binding response (% of control) is reported as inconclusive: 104%.
With `CCCc1nnc(NC(=O)CCC(=O)N2CCN(S(=O)(=O)c3ccc(C)cc3)CC2)s1` the binding response (% of control) was inconclusive: 108%.
In the case of `Clc1nc(CN2CCOCC2)nc2sc3c(c12)CCC3`, the binding response (% of control) is reported as inconclusive: 101%.
For `CCOC(=O)c1c(NC(=O)CSc2nnc(C)o2)sc(C)c1C`, the binding response (% of control) was inconclusive: 98%.
In the case of `CCCCNc1nc2c(S(=O)(=O)c3ccccc3)nnn2c2ccccc12`, the binding response (% of control) is reported as inconclusive: 85.3%.
With `Cc1ncn(-c2ccc(C(=O)Oc3ccccc3)cn2)n1` the binding response (% of control) was inconclusive: 114%.
For `CCc1ccc(NC(=O)CC2C(=O)N(c3cccc(C)c3)C(=O)N2C2CC2)cc1` (centres undefined), the binding response (% of control) was inconclusive: 87.3%.
With `CC(=O)C1C(c2ccc(Br)cc2)c2c(noc2C)CC1(C)O` (centres undefined) the binding response (% of control) was inconclusive: 99.8%.
`C=CCN1CC(C(=O)N2CCC(Cc3ccc(Cl)cc3)(C(=O)OCC)CC2)CC1=O` (centres undefined) was tested, and the binding response (% of control) was inconclusive: 101%.
With `COC(=O)c1cccc(NC(=O)CCNC(=O)c2ccc([N+](=O)[O-])cc2)c1` the binding response (% of control) was inactive: 99.7%.
`O=C(c1ccccn1)c1ccc2ccccc2n1` was tested, and the binding response (% of control) was inconclusive: 83.7%.
For `CSc1cccc(NC(=O)CN(Cc2ccc(Cl)cc2)S(C)(=O)=O)c1`, the binding response (% of control) was inactive: 110%.
With `Cc1cc(C)c(S(=O)(=O)N2CCCOC2CNC(=O)C(=O)NCCc2c[nH]c3ccccc23)c(C)c1` (centres undefined) the binding response (% of control) was inactive: 105%.
In the case of `CC(=O)Nc1sc2c(c1C(c1ccccn1)N1CCCC1)CCCC2` (centres undefined), the binding response (% of control) is reported as inconclusive: 85%.
For `O=C1NCCCC1C(=O)N/N=C/c1cccc(Cl)c1` (centres undefined), the binding response (% of control) was inconclusive: 128%.
For `Cc1csc(SCC(=O)Nc2cc(S(=O)(=O)N3CCOCC3)ccc2N2CCOCC2)n1`, the binding response (% of control) was inconclusive: 103%.
`COc1cc(C2OC(=O)c3ccccc3S2)cc(OC)c1OC` (centres undefined) was tested, and the binding response (% of control) was inconclusive: 100%.
In the case of `COc1cc(C2SCCS2)cc(Br)c1Oc1ncccc1[N+](=O)[O-]`, the binding response (% of control) is reported as inconclusive: 332%.
For `COc1ccc(CCNC(=O)CSc2nnc3ccccn23)cc1`, the binding response (% of control) was inconclusive: 88.2%.
For `O=C(O)COc1ccccc1/C=N/NC(=O)CSc1nc2ccccc2s1`, the binding response (% of control) was inconclusive: 115%.
For `COc1ccc(Cl)cc1NC(=O)c1cc(-c2cc(C)ccc2O)n[nH]1`, the binding response (% of control) was inconclusive: 102%.
For `CC(C)(C)c1cccc(C2(O)C(=O)c3ccccc3C2=O)c1O`, the binding response (% of control) was inconclusive: 70.4%.
For `COc1ccccc1NC(=O)/C=C1\SCC(=O)N1C`, the binding response (% of control) was inconclusive: 120%.
`Cn1c(=O)c(=O)n(C)c2cc(S(=O)(=O)N3CC(=O)N(CCc4ccccc4)C(=O)C3)ccc21` was tested, and the binding response (% of control) was inconclusive: 68.2%.
In the case of `CSc1nc(SCC(=O)O)c2c3c(sc2n1)COC(C)(C)C3`, the binding response (% of control) is reported as inconclusive: 78%.
In the case of `Cc1ccc(C(=O)N/C(=C\c2ccc(C)o2)C(=O)O)cc1`, the binding response (% of control) is reported as inconclusive: 150%.
In the case of `O=C(Nc1nc2ccsc2c(=O)s1)c1ccc(Cl)cc1`, the binding response (% of control) is reported as inconclusive: 71.3%.
In the case of `OC1(c2ccc(Cl)cc2)CCN(Cc2cn[nH]c2-c2ccc(F)cc2)CC1`, the binding response (% of control) is reported as inconclusive: -56.1%.
`Cc1ccc(C)c(-n2c3nc(=O)n(C)c(=O)c-3cc3ccccc32)c1` was tested, and the binding response (% of control) was inconclusive: 91.1%.
With `CNC(=O)c1c(NC(=O)c2cccc(N3C(=O)CCC3=O)c2)sc2c1CCCC2` the binding response (% of control) was inconclusive: 279%.
In the case of `COc1ccc(S(=O)(=O)Nc2cccnc2)cc1`, the binding response (% of control) is reported as inconclusive: 62.4%.
`COc1ccccc1Nc1nc(N)nc(CCl)n1` was tested, and the binding response (% of control) was inconclusive: 98.2%.
For `CCSc1nc2ccc(N3C(=O)C4C5C=CC(C5)C4C3=O)cc2s1` (centres undefined), the binding response (% of control) was inactive: 103%.
`C/C(CC(=O)Nc1ccc2c(c1)OCO2)=N\NC(=O)c1ccccc1N` was tested, and the binding response (% of control) was inconclusive: 39.5%.
In the case of `S=c1[nH]nc(-c2cccs2)n1/N=C/c1cn(-c2ccccc2)nc1-c1ccc(Cl)cc1`, the binding response (% of control) is reported as inconclusive: 97.9%.
In the case of `CN1CCN(S(=O)(=O)c2cccc(C(=O)Nc3ccccc3N3CCOCC3)c2)CC1`, the binding response (% of control) is reported as inactive: 102%.
With `CCCCC1=CC2=CC(=O)C(C)(OC(=O)CC)C(=O)C2=CN1CCCCO` (centres undefined) the binding response (% of control) was inconclusive: 80.8%.
`O=S(=O)(Oc1ccccc1/C=N/n1cnnc1)c1ccccc1` was tested, and the binding response (% of control) was inconclusive: 95.9%.
In the case of `CC1(C)CC(=O)/C(=N/Nc2ccc(Cl)cc2)CO1`, the binding response (% of control) is reported as inconclusive: 86.9%.
For `C=CCC(COCc1ccccc1)NS(=O)(=O)c1ccccc1Br` (centres undefined), the binding response (% of control) was inconclusive: 108%.
For `Cc1cc(NC(=O)C2CC(=O)OC2c2ccccc2)no1` (centres undefined), the binding response (% of control) was inactive: 96.8%.
For `COc1ccc2c(c1)O[C@@H](c1cccc(C(F)(F)F)c1)[C@H](OC(=O)NCCc1ccc(OC)c(OC)c1)C2=O`, the binding response (% of control) was inactive: 100%.
In the case of `Cc1ccc(NC2CC(=O)N(c3cccc([N+](=O)[O-])c3)C2=O)cc1` (centres undefined), the binding response (% of control) is reported as inconclusive: 114%.
In the case of `O=C(/C=C/c1cccc([N+](=O)[O-])c1)NC1CC2CCC1C2` (centres undefined), the binding response (% of control) is reported as inactive: 106%.
`O=[N+]([O-])c1ccc(NCCCNS(=O)(=O)c2ccccc2)cc1` was tested, and the binding response (% of control) was inactive: 91.6%.
With `CCOc1ccc(C(=O)c2ccccc2C(=O)O)cc1OCC` the binding response (% of control) was inconclusive: 88.3%.
With `CCS(=O)(=O)N1Cc2ccccc2CC1C(=O)Nc1ccccc1OC` (centres undefined) the binding response (% of control) was inconclusive: 95.5%.
With `C=CCN1C2CCCC1CC(NC(=S)Nc1cccc(OC)c1)C2` (centres undefined) the binding response (% of control) was inactive: 102%.
For `CCC(CCC(=O)NNC(=O)Cc1ccc([N+](=O)[O-])cc1)C(=O)O` (centres undefined), the binding response (% of control) was inconclusive: 73.3%.
For `CCOC(=O)C1CCN(C(=O)Nc2ccc(C)c(Cl)c2)CC1`, the binding response (% of control) was inconclusive: 100%.
For `COc1ccc2c3c1OC1CC(O)C=CC31CCN(C)C2` (centres undefined), the binding response (% of control) was inconclusive: 84.8%.
`COC(=O)c1ccncc1N` was tested, and the binding response (% of control) was inconclusive: 92.6%.
`CC(=O)Nc1cccc(/C(C)=N/NC(=O)c2ccc(NS(=O)(=O)c3cccs3)cc2)c1` was tested, and the binding response (% of control) was inconclusive: -183%.
For `COc1ccc(OC)c(C2=NOC(C(=O)Nc3c(C)n(C)n(-c4ccccc4)c3=O)C2)c1` (centres undefined), the binding response (% of control) was inconclusive: 122%.
In the case of `COc1ccc(S(=O)(=O)N2CCOC2CNC(=O)C(=O)NCc2ccco2)cc1` (centres undefined), the binding response (% of control) is reported as inconclusive: 44.4%.
For `C=CCN1C(=O)C(CC(=O)O)SC1=Nc1cccc([N+](=O)[O-])c1` (centres undefined), the binding response (% of control) was inconclusive: 85.5%.
For `CCN(CC)c1ccc(/C=N/NC(=O)c2cccc(S(=O)(=O)N3CCOCC3)c2)c(O)c1`, the binding response (% of control) was inconclusive: 33%.
In the case of `Cc1ccc(NC(=O)COC(=O)CSC(=S)N2CCOCC2)cc1C`, the binding response (% of control) is reported as inconclusive: 93.9%.
`CCC(C(=O)N1CCN(c2ncccn2)CC1)c1ccccc1` (centres undefined) was tested, and the binding response (% of control) was inconclusive: 91.8%.
In the case of `CCn1c(O)c(C=NC2CCCC(C)C2C)sc1=S` (centres undefined), the binding response (% of control) is reported as inconclusive: 78.8%.
For `Cn1cc(CN2CCC(C(O)c3cccs3)CC2)c(-c2ccccc2F)n1` (centres undefined), the binding response (% of control) was inconclusive: 108%.
For `CCOC(=O)C1=CN(Cc2ccc(OC)cc2)C=C(C(=O)OCC)C1c1cccs1`, the binding response (% of control) was inconclusive: 80.4%.
In the case of `CCNC(=O)[C@H]1O[C@@H](n2cnc3c(N)nc(NCCc4ccc(CCC(=O)O)cc4)nc32)[C@H](O)[C@@H]1O`, the binding response (% of control) is reported as inconclusive: 124%.
With `CCN1CCN(CCc2nc3cc(NC(=O)COc4ccc(Cl)cc4)ccc3n2C)CC1` the binding response (% of control) was inconclusive: 9.48%.
In the case of `CC1CCCCN1C(=O)C1CCCCN1S(=O)(=O)c1cccc([N+](=O)[O-])c1` (centres undefined), the binding response (% of control) is reported as inconclusive: 100%.
For `CCOC(=O)c1sc(-c2ccc(Cl)cc2)nc1O`, the binding response (% of control) was inconclusive: 98%.
`COC(=O)c1ccc(C(=O)N2CCCC(CNC(=O)c3ccccc3Cl)C2)cc1` (centres undefined) was tested, and the binding response (% of control) was inactive: 103%.
In the case of `COc1ccc(C2C(C(=O)Nc3cccc(OC)c3)c3ccccc3C(=O)N2C)cc1` (centres undefined), the binding response (% of control) is reported as inconclusive: 117%.
In the case of `O=c1[nH][nH]cc1C=NCc1cccc(C(F)(F)F)c1`, the binding response (% of control) is reported as inconclusive: 86.6%.
For `NC(=O)[C@@H]1CC2(CC(c3cccc(NC(=O)CC(c4ccccc4)c4ccccc4)c3)=NO2)CN1C(=O)c1ccc(Cl)cc1` (some centres undefined), the binding response (% of control) was inconclusive: 103%.
`Cc1c(-c2nc(-c3cccnc3)no2)cccc1[N+](=O)[O-]` was tested, and the binding response (% of control) was inconclusive: 109%.
With `Cc1nonc1C(=O)N/N=C/c1ccc([N+](=O)[O-])o1` the binding response (% of control) was inconclusive: 96.1%.
`CC(C)(C)c1ccc(OCC(=O)N/N=C/c2ccc(N3CCOCC3)cc2)cc1` was tested, and the binding response (% of control) was inactive: 106%.
With `Cc1ccc(OCC(=O)N(Cc2cccs2)C2CCS(=O)(=O)C2)cc1` (centres undefined) the binding response (% of control) was inconclusive: 118%.
In the case of `CC(CN1CCOCC1)OC(=O)c1ccccc1` (centres undefined), the binding response (% of control) is reported as inconclusive: 306%.
In the case of `Cc1ccc2[nH]c3c(Cl)ncnc3c2c1`, the binding response (% of control) is reported as inconclusive: 83.9%.
`CCC(C)NCCOc1ccc(C(C)(C)c2ccccc2)cc1` (centres undefined) was tested, and the binding response (% of control) was inconclusive: 86.1%.
In the case of `O=C1/C(=C/c2ccccn2)SC(=S)N1c1cccc(O)c1`, the binding response (% of control) is reported as inconclusive: 117%.
For `CCC(=O)N/C(N)=N/c1nc(C)c2cc(C)c(C)cc2n1`, the binding response (% of control) was inconclusive: 189%.
In the case of `CC(C)NC(=O)NC(=O)COC(=O)c1ccccc1O`, the binding response (% of control) is reported as inconclusive: 75.9%.
With `CCc1ccc(S(=O)(=O)Nc2ccc(O)c3c(=O)cc(-c4ccccc4Cl)oc23)cc1` the binding response (% of control) was inconclusive: 123%.
`CC1(C)CC(=O)C2=C(C1)NC(=O)NC2c1ccccc1` (centres undefined) was tested, and the binding response (% of control) was inactive: 104%.
With `CCN=C(NCC)SC1CC(=O)N(c2ccc(F)cc2)C1=O` (centres undefined) the binding response (% of control) was inconclusive: 108%.
